# Measured values reported in the supplement of paper PMC6411743.
# ± gives the standard deviation of the averaged measurements. The list shows a part of the results, in another mix than the full data.
# What was measured:
# Experiment in all cases: NP40-soluble protein abundance relative to vehicle (solubility fold change) (ratio); higher = more soluble protein in presence of ATP
# [1] = target: T1, UniProt Q9H4L7 and related entries
# T1 sequence (whole entry): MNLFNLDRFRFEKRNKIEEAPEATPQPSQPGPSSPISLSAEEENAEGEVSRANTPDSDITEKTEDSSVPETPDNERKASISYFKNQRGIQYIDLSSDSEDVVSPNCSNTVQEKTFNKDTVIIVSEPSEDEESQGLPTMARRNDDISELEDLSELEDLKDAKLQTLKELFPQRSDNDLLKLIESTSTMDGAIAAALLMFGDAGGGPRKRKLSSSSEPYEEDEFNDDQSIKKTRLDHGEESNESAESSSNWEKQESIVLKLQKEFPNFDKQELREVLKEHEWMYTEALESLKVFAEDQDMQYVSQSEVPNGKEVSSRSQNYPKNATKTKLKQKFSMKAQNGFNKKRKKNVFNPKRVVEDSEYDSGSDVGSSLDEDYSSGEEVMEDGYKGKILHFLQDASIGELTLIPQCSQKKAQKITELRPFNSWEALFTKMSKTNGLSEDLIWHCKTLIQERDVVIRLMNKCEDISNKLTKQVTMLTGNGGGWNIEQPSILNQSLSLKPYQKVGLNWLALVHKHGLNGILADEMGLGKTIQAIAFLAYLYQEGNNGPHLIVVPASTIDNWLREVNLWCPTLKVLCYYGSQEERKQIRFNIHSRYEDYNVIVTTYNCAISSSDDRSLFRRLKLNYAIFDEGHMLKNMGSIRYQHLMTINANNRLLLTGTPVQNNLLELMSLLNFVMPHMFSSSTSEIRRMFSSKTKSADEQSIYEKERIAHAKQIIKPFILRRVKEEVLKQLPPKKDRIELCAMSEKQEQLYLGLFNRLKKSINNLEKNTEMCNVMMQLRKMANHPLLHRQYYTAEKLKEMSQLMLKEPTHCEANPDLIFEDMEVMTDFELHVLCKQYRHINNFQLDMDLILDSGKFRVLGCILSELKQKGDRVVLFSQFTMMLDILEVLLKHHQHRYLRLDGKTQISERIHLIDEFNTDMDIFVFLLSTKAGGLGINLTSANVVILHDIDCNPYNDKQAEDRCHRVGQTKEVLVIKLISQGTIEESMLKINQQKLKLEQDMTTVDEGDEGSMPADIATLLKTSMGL
# Outline: (§1)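 Jurkat crude lysate (Dounce-homogenised) was treated with eight concentrations from 0.1 to 10 mM for 10 min at room temperature, then 3 min at 37 °C. It was solubilised with 0.8% NP40 and benzonase (60 min, 4 °C) and ultracentrifuged, and the supernatant was TMT-labelled for LC-MS/MS. Intensities were vsn-normalised, and the value is the fold change against the NP40-processed vehicle per replicate, from three independent experiments.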
# [2] = target: T2, UniProt Q9H6R7 and related entries
# T2 sequence (whole entry): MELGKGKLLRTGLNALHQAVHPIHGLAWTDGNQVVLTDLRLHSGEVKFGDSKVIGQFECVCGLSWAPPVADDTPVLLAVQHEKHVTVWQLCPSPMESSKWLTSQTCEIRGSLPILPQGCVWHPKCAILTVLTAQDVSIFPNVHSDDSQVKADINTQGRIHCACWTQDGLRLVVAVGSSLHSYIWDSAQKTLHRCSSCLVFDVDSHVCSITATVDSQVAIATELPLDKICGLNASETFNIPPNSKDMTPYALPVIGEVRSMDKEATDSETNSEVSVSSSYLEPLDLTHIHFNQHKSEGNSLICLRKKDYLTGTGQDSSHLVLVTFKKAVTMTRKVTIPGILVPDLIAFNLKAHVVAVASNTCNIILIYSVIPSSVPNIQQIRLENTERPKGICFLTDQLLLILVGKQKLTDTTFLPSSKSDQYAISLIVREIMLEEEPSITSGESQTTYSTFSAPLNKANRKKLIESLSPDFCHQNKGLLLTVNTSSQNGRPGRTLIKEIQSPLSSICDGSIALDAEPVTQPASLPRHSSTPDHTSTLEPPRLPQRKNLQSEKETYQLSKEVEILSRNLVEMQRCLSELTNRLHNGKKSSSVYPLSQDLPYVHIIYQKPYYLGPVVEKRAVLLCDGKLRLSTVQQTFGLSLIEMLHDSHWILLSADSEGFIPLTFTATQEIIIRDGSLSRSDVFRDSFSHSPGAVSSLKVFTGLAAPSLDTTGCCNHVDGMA
# Outline: as §1
# [3] = target: T3, UniProt Q9H7X7 and related entries
# T3 sequence (whole entry): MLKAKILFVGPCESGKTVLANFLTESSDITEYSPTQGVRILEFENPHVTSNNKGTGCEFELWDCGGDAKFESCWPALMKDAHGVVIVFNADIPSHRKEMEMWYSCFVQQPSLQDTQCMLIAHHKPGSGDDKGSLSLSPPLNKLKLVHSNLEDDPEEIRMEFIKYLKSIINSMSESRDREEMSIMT
# Outline: as §1
# [4] = target: T4, UniProt Q9H7Z6 and related entries
# T4 sequence (whole entry): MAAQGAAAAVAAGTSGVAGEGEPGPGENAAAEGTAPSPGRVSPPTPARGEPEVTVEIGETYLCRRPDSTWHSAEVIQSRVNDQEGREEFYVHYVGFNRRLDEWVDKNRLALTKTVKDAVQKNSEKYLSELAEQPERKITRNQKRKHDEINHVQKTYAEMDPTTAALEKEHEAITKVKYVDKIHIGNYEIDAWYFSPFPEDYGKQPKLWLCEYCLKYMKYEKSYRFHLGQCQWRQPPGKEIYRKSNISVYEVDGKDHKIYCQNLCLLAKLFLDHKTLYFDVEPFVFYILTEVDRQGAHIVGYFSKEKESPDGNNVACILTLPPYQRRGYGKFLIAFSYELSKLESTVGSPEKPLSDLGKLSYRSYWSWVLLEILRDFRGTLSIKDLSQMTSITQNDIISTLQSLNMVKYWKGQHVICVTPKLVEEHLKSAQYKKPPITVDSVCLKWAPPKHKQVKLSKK
# Outline: as §1
# [5] = target: T5, UniProt Q9HAS0 and related entries
# T5 sequence (whole entry): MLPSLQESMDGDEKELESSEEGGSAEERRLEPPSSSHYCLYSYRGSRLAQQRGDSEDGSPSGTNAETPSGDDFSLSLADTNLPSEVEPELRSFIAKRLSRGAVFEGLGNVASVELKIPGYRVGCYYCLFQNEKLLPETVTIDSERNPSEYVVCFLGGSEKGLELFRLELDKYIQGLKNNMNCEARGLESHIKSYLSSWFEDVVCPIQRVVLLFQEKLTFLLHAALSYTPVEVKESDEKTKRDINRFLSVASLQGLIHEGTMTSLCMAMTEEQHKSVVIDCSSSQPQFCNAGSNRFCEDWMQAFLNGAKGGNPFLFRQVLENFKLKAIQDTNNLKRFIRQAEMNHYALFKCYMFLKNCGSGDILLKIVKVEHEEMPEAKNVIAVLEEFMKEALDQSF
# Outline: as §1
structure (smiles),measurement,setting,value
Nc1ncnc2c1ncn2[C@@H]1O[C@H](COP(=O)(O)OP(=O)(O)OP(=O)(O)O)[C@@H](O)[C@H]1O [adenosine triphosphate],NP40-soluble protein abundance,[1]; concentration: 6mM,0.971 ± 0.04
same,NP40-soluble protein abundance,[1]; concentration: 8mM,0.943 ± 0.028
same,NP40-soluble protein abundance,[1]; concentration: 10mM,0.947 ± 0.024
same,NP40-soluble protein abundance,[2]; concentration: 1mM,0.995 ± 0.03
same,NP40-soluble protein abundance,[2]; concentration: 2mM,0.977 ± 0.15
same,NP40-soluble protein abundance,[2]; concentration: 4mM,0.934 ± 0.16
same,NP40-soluble protein abundance,[2]; concentration: 6mM,1 ± 0.14
same,NP40-soluble protein abundance,[2]; concentration: 8mM,0.942 ± 0.21
same,NP40-soluble protein abundance,[2]; concentration: 10mM,1.03 ± 0.14
same,NP40-soluble protein abundance,[3]; concentration: 1mM,1.03 ± 0.073
same,NP40-soluble protein abundance,[3]; concentration: 2mM,1.04 ± 0.026
same,NP40-soluble protein abundance,[3]; concentration: 4mM,1.03 ± 0.065
same,NP40-soluble protein abundance,[3]; concentration: 6mM,1.04 ± 0.066
same,NP40-soluble protein abundance,[3]; concentration: 8mM,1.01 ± 0.014
same,NP40-soluble protein abundance,[3]; concentration: 10mM,1.03 ± 0.042
same,NP40-soluble protein abundance,[4]; concentration: 1mM,1.06 ± 0.025
same,NP40-soluble protein abundance,[4]; concentration: 2mM,1.08 ± 0.042
same,NP40-soluble protein abundance,[4]; concentration: 4mM,1.07 ± 0.014
same,NP40-soluble protein abundance,[4]; concentration: 6mM,1.061 ± 0.0093
same,NP40-soluble protein abundance,[4]; concentration: 8mM,1.12 ± 0.039
same,NP40-soluble protein abundance,[4]; concentration: 10mM,1.13 ± 0.055
same,NP40-soluble protein abundance,[5]; concentration: 1mM,1.04 ± 0.08
same,NP40-soluble protein abundance,[5]; concentration: 2mM,1.05 ± 0.047
same,NP40-soluble protein abundance,[5]; concentration: 4mM,1.06 ± 0.028
same,NP40-soluble protein abundance,[5]; concentration: 6mM,0.985 ± 0.019
same,NP40-soluble protein abundance,[5]; concentration: 8mM,1.11 ± 0.037
same,NP40-soluble protein abundance,[5]; concentration: 10mM,1.12 ± 0.06

# In another format: results already given.
structure (smiles)	measurement	setting	value
Nc1ncnc2c1ncn2[C@@H]1O[C@H](COP(=O)(O)OP(=O)(O)OP(=O)(O)O)[C@@H](O)[C@H]1O [adenosine triphosphate]	NP40-soluble protein abundance	[3]; concentration: 10mM	1.03 ± 0.042
same	NP40-soluble protein abundance	[4]; concentration: 2mM	1.08 ± 0.042
